In the supplement of paper PMC3334620:
In all, about 33,000 sequences were measured (“E-score (-0.5 to 0.5)”: median about -0.016, highest 2% from about 0.3 on). The list shows a part of the results.

These sequences were tested against T1, Yer184c (UniProt P39961) (assay: PBM E-score (8-mer binding enrichment) (E-score (-0.5 to 0.5)); higher = stronger / more preferred TF binding). Settings: protein concentration: 100 nM; construct: GST-full length.
T1 sequence: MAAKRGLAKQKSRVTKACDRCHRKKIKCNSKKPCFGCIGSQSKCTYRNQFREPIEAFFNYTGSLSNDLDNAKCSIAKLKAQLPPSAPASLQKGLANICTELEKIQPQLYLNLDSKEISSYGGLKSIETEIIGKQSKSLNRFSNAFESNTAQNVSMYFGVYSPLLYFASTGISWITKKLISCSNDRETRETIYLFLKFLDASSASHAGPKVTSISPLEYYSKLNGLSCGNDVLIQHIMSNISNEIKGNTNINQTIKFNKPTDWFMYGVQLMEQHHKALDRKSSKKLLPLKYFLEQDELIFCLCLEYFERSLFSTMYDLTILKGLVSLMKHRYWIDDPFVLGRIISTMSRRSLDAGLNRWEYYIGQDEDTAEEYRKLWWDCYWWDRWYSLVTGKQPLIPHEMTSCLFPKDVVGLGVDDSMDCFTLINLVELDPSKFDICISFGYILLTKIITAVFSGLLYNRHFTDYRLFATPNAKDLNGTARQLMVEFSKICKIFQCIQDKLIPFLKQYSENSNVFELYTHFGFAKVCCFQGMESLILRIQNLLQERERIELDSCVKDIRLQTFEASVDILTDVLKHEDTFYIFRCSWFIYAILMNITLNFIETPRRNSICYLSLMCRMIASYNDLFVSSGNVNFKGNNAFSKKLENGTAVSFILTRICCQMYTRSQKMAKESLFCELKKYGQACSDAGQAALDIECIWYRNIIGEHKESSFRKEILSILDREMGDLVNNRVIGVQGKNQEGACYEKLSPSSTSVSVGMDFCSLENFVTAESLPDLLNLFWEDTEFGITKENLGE
Method in brief: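 Using PURExpress in vitro transcription/translation, GST-tagged yeast transcription factors were made in full-length or DNA-binding-domain form. These were applied at about 100-200 nM to double-stranded universal all-10-mer Agilent arrays, and bound protein was detected with fluorescent anti-GST. Scans were normalised with masliner before the Universal PBM Analysis Suite assigned E-scores to ungapped eight-base words pooled with their reverse complements.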

Row | Sequence | PBM E-score
1 | GCAATGTA | -0.042
2 | ACCCCTGC | -0.322
3 | CGAATTTA | 0.223
4 | TAGGCATA | -0.193
5 | GCATTGGC | -0.269
6 | CGGGAGGC | -0.193
7 | ATTGGATC | 0.0272
8 | TGGTACAA | -0.134
9 | ACTAATCC | 0.0469
10 | TATTATGA | 0.0656
11 | GCCTGCCC | -0.2
12 | AACCGCGG | 0.372
13 | CTGAGTTA | -0.00443
14 | GCACGTCA | -0.275
15 | CCTACAAC | 0.0109
16 | ATCACGTA | -0.172
17 | GCCACACC | -0.131
18 | ATTTGTAG | 0.0971
19 | ATCTCAGG | -0.154
20 | AGAGCGAT | -0.245
21 | AGCCAACA | -0.127
22 | ACCAAAGC | 0.0124
23 | ACGCGTGC | -0.111
24 | AGGGTGGG | -0.0967
25 | CATGTTAG | -0.0773

Row | Sequence | PBM E-score
26 | ATGATTTG | -0.00599
27 | AGCCGGCA | 0.404
28 | CTGAATAC | -0.0281
29 | TCATGCAA | -0.0327
30 | AAATCTCC | -0.0843
31 | CAGAAAAG | 0.12
32 | AAGTCGAT | -0.104
33 | CAGATAGG | -0.118
34 | AGCGATAC | -0.0215
35 | ACGCGCAG | -0.232
36 | GAAATCGC | 0.0587
37 | AACTGTTC | 0.063
38 | CCCCCTAG | -0.409
39 | AATCCAGC | 0.012
40 | ACTCATCT | -0.0347
41 | GATACCCC | -0.123
42 | CTGGAGAA | -0.0469
43 | CAATTCGG | 0.12
44 | AGCCCCAA | -0.404
45 | CCACACTA | 0.139
46 | CCTATGTC | -0.152
47 | CACATCGA | -0.127
48 | CAAAGTTG | -0.0329
49 | AAGAACAT | 0.138
50 | ATATTCGC | 0.111

Row | Sequence | PBM E-score
51 | AAGGGGAT | -0.137
52 | GTCCGAGA | 0.333
53 | AACTCACT | -0.228
54 | CGGCTAGC | 0.24
55 | TCCCCGCA | -0.0944
56 | GGCCAAAC | -0.0526
57 | CATTGGCA | -0.132
58 | AGTCTTGG | -0.0577
59 | CTGTAGGA | -0.0223
60 | AAGAGGCG | -0.0476
61 | AAGCACTT | -0.0603
62 | AGAGCCAC | -0.12
63 | GCCTAGCC | -0.172
64 | CGTGACCA | -0.205
65 | AGCTCATA | 0.0989
66 | ACACAACT | -0.074
67 | AGGGAGCA | -0.334
68 | TTCGTAAA | 0.0501
69 | AGCATTGA | -0.082
70 | GCGAGCCC | -0.182
71 | AATAGTCG | 0.0462
72 | CCTAGATA | -0.25
73 | CGGTAACA | 0.241
74 | GCCCGTGA | -0.132
75 | CCCATGAC | -0.117

Looked up one by one from the list above:
Row | Sequence | PBM E-score
75 | CCCATGAC | -0.117
61 | AAGCACTT | -0.0603
72 | CCTAGATA | -0.25
58 | AGTCTTGG | -0.0577

The listing continues:

Row | Sequence | PBM E-score
76 | AAGGTATT | 0.0587
77 | ACCGGATA | 0.187
78 | AAAACGTT | 0.142
79 | CAATAGTC | -0.125
80 | GTGGACTA | 0.0273
81 | GGCAGGCA | -0.0182
82 | CCTCAAGC | -0.209
83 | AAGCGGTG | -0.211
84 | CAAATAAA | 0.21
85 | GTGCGGGA | 0.0332
86 | ACGCGCCT | -0.134
87 | AGTGCGCG | -0.151
88 | GTGATCAA | 0.153
89 | CTAATGAG | -0.162
90 | ATGTTACC | 0.0827
91 | CCGCACGA | 0.15
92 | ATAGCACG | -0.0903
93 | GTTCGAAC | 0.228
94 | CTTAAGGA | -0.0893
95 | ACGTGGCG | -0.213
96 | ATGCTCTC | -0.0198
97 | TATATAGA | 0.198
98 | AGGTGCGG | -0.0959
99 | GGTGCACA | -0.134
100 | ATCGAAAG | 0.125

Row | Sequence | PBM E-score
101 | AAGACAGA | 0.212
102 | AAACATTT | 0.123
103 | ACCGCACT | -0.0213
104 | CCTATTTA | 0.0643
105 | AGGAACCC | -0.173
106 | AATAACAG | 0.232
107 | CAACAGGA | -0.139
108 | ATACCCGC | 0.0816
109 | CTACGGGA | 0.0775
110 | AGTCGAAG | -0.108
111 | ACCTCGCT | 0.0583
112 | GCCACCCC | -0.32
113 | ACAGACGT | -0.0477
114 | CACATATA | 0.102
115 | TGAAGTCA | -0.0926
116 | CATTGATA | 0.0947
117 | CCCTGGAC | -0.204
118 | CACGACAG | -0.129
119 | GCCTATTA | -0.00127
120 | AATTCTCC | 0.239
121 | CATGAACA | 0.15
122 | CAAACTCG | 0.00018
123 | AGGCCGCG | 0.0685
124 | AGTATGAG | 0.0651
125 | CGTTAGAC | -0.0103

Row | Sequence | PBM E-score
126 | ATTCGCAC | 0.041
127 | GATAGAGA | 0.00952
128 | CAAATGAG | -0.104
129 | GAACGGAA | 0.267
130 | ACCGGAAT | 0.233
131 | AGCCCGTC | -0.213
132 | AAAACGAA | 0.203
133 | AATATTGG | -0.13
134 | CGGATGCC | 0.219
135 | AATGGTTG | 0.0597
136 | AGTGTGTC | -0.0553
137 | GTCCGAAA | 0.316
138 | ACACCCGT | -0.0572
139 | CGCAAGGA | -0.0965
140 | GGGCTATA | -0.287
141 | ACCACTAA | 0.124
142 | ACGACAAT | 0.0693
143 | AAGGTGGT | -0.181
144 | CGAACAAG | 0.167
145 | ATTAGAGA | 0.037
146 | GCATGATA | 0.0968
147 | CCAGTCAG | -0.225
148 | TGTGCACA | -0.205
149 | CAACGTAG | -0.099
150 | ATACGACG | 0.154

Row | Sequence | PBM E-score
151 | GCAGACGA | -0.0385
152 | CCGTTAGA | 0.19
153 | GCGGCACC | 0.23
154 | CGCTCTTA | 0.154
155 | CTGACCCA | -0.289
156 | CCCGTTGC | -0.0512
157 | GCAAGTTA | 0.079
158 | GCTGCGAC | -0.182
159 | CGCGGAGC | 0.171
160 | CATAGTGC | 0.0533
161 | GGTTTGAA | 0.202
162 | AAGTTAGC | 0.175
163 | ATATTCCG | 0.38
164 | CTATTCTC | 0.0168
165 | CTGGGCAC | -0.0897
166 | CATACTAA | 0.142
167 | ACTGATAA | 0.147
168 | ACTCCTCT | -0.148
169 | TAGAGATA | 0.145
170 | CCGACGTC | 0.0909
171 | CAAAGAAG | 0.0602
172 | CCATGGAG | -0.162
173 | GACAGAAA | 0.252
174 | AGCGGGTC | -0.202
175 | GACAGCAC | 0.108

Row | Sequence | PBM E-score
176 | AAATTGAA | 0.0316
177 | AGGAGGGG | -0.215
178 | AACTCGCA | 0.0241
179 | GCACATTA | -0.0503
180 | CTCACGAA | 0.0594
181 | CCTAGCCA | -0.128
182 | ATATGGGA | -0.205
183 | AAGAGAAC | 0.0994
184 | CGGCTTAC | 0.151
185 | AAGGAAAT | 0.107
186 | ATCTGTCC | -0.121
187 | CGCAGCAG | -0.00318
188 | AGGCAGGA | -0.14
189 | GTGCCGAA | 0.387
190 | AAGAACAG | 0.0738
191 | AGTTGTAC | 0.0615
192 | CGAGAGTC | -0.0879
193 | GATACCAA | 0.0987
194 | CTTGACGA | -0.0655
195 | GCCTACGC | -0.208
196 | CTCGCAAC | 0.03
197 | AATAATAG | 0.00819
198 | CATCGCGC | -0.0366
199 | AAAGTATG | -0.012
200 | CAAAAAAG | 0.177

Laid out differently: entries from further up
AAATTGAA
  PBM E-score: 0.0316
AAGGAAAT
  PBM E-score: 0.107
AGGCAGGA
  PBM E-score: -0.14
GCCTACGC
  PBM E-score: -0.208

Some of the entries so far, comma-delimited.
Row,Sequence,PBM E-score
192,CGAGAGTC,-0.0879
193,GATACCAA,0.0987

Next part.

Row | Sequence | PBM E-score
201 | ACGTGGTA | -0.0833
202 | AGCGAATC | 0.0598
203 | GATACTCC | -0.0289
204 | GCCTAGAC | -0.138
205 | AAACAGTC | -0.192
206 | CAGTATAA | 0.145
207 | TCGTTTCA | 0.124
208 | CGAGTCGA | 0.0363
209 | CGGGAGAG | -0.0509
210 | ACATTGCC | -0.0517
211 | ACTGGATA | 0.0928
212 | CTTGCTAC | -0.00558
213 | ACACTTAA | 0.0551
214 | AACCCCGT | -0.101
215 | ATGTAGGG | -0.219
216 | ATTAATCC | 0.212
217 | CCCACGCA | -0.0326
218 | TCTGCTAA | 0.0656
219 | ACGTGGTC | -0.221
